Measurements: PMC5778047
No constants are given. Whether binding was seen depends on the method and setting. Binding seen in cells or lysates may run through a third protein. For part of these data: Where a sequence is shown, tags or fusion partners need not be part of it.

Key:
Assay in all cases: pull-down; 10 µg GST-fusion protein pre-incubated with glutathione sepharose beads 16-20 h at 4 °C; lysate of transfected HEK293T cells (50 mM HEPES pH 7.3, 5 mM EDTA, 100 mM NaCl, 1% Triton X-100) added for 16-20 h at 4 °C; three washes; immunoblot with anti-GFP or anti-CIMPR; only the target purified
[1] = target: T1, GST fused with the GAE region of GGA2 (human) (UniProt Q9UJY4)
T1 sequence: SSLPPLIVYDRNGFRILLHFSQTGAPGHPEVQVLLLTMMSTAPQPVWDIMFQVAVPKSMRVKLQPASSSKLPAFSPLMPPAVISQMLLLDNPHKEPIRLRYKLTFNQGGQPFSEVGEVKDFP

[2] = target: GST fused with the VHS region of GGA2 (human) (UniProt Q9UJY4)
[3] = target: T2, GST fused with the GAT region of GGA2 (human) (UniProt Q9UJY4)
T2 sequence: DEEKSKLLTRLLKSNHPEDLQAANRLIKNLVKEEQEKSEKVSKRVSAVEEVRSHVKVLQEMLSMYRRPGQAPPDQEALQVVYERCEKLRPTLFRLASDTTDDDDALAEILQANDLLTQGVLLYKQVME

- binding [1]: no binding
- binding [2]: no binding
- binding [3]: no binding
Substance: GFP-jxt (EGFR juxtamembrane region) (from UniProt P00533) (domain or fragment)
